PubChem BioAssay AID504444 (National Center for Advancing Translational Sciences (NCATS), 2011)
In all, about 360,000 compounds went through this assay and about 7,500 (2.1%) were called active. The shares of active, inactive and inconclusive entries below differ from those in the screen. Calls follow the shape of the dose curve; as a rule, active = well fitted inhibition curve with a large enough effect; inconclusive = small, poorly fitted or top-dose-only effect, or effect the other way; inactive = flat fitted curve, though single readings scatter. Where the call is inconclusive, the potency comes from a doubtful curve fit.

Test: Nrf2 qHTS screen for inhibitors; also: nearly all actives have a fitted effect of over 60% in size
Settings: A549 ARE-Fluc reporter, luciferase luminescence, 18-24 h; activity change, negative = inhibition: at 46 µM (top of the series)
Method in brief: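 A549 ARE_Fluc cells, 5000/well, 5% FBS OPTI-MEM; compounds in dose-response, 18-24 h at 37 °C/5% CO2; CellTiter-Fluor viability read (Ex 405/Em 525), then BugLite luciferase luminescence = Nrf2 activity.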
% is scaled to controls: 0 for no effect and ±100 for the full control effect; potency is read from the fitted curve at half-maximal effect.

| Compound | activity change, negative = inhibition | Potency |
| --- | --- | --- |
| Cc1cc(NC(=S)N(CCCN2CCOCC2)Cc2ccco2)ccc1Cl | inactive: -2.94% |  |
| CC(=O)c1nn(-c2ccc(Cl)cc2)c(=O)[nH]c1=O | inactive: -1.51% |  |
| O=c1c2ccccc2ncn1-c1cccc(Cl)c1 |  | inconclusive: 8.2 µM [activator, partial curve, poor fit] |
| CN(CC(=O)NC(=O)NCc1ccccc1)CC(=O)Nc1ccc(Cl)c(C(F)(F)F)c1 |  | inconclusive: 25.9 µM [falling, single point] |
| CC1(C)CC(=O)C2=C(C1)OC1=C(C(=O)CC(C)(C)C1)C2c1cc([N+](=O)[O-])cc([N+](=O)[O-])c1O |  | inconclusive: 23.1 µM [falling, single point] |
| O=C(Nc1ccccc1Cl)c1ccc(Cl)cc1Cl |  | inconclusive: 23.1 µM [activator, partial curve] |
| CCCNc1ccc(-c2nc(-c3ccccn3)no2)cc1[N+](=O)[O-] |  | inconclusive: 29.1 µM [activator, single point] |
| Cc1ccsc1/C=C1\SC(N2CCOCC2)=NC1=O |  | inconclusive: 8.2 µM [activator, partial curve] |
| c1ccc(COc2ccc(OCCCNC3CCCC3)cc2)cc1 |  | inconclusive: 18.4 µM [activator, single point] |
| CCOC(=O)C(=CNc1cc(C)nn1-c1ccc(C)cc1)C(=O)OCC |  | inconclusive: 11.6 µM [falling, partial curve] |
| CCc1ccc(/C=C2\SC(=S)N(CCC(=O)NCCCN3CCOCC3)C2=O)cc1 |  | inconclusive: 20.6 µM [activator, partial curve, poor fit] |
| CCN(CCCNC(=O)c1nn(-c2ccc(OC)cc2)c(=O)c2c1c1ccccc1n2C)c1ccccc1 | inactive: 10% |  |
| CC(=O)c1c(C)[nH]c(C(=O)Nc2cc(C)cc(C)c2)c1C |  | inconclusive: 7.31 µM [falling, partial curve] |
| CC(C)n1cnc2cc(NCc3nc4ccccc4n3C)ccc21 |  | inconclusive: 0.517 µM [activator, full curve] |
| Cc1ccc2nc(NC(=O)CSc3nc4c(c(=O)n3C)SC(C)C4)sc2c1 (stereo not given) |  | inconclusive: 20.6 µM [falling, single point] |
| O=C(C1CCCN1S(=O)(=O)c1cccc2cccnc12)N1CCn2c1nc1ccccc12 (stereo not given) | inactive: 2.96% |  |
| O=C(CSc1nncc2ccccc12)Nc1ccc(F)cc1 |  | inconclusive: 20.6 µM [falling, single point] |
| COc1ccccc1C(=O)NCC(c1cccnc1)N1CCc2ccccc2C1 (stereo not given) |  | inconclusive: 1.84 µM [activator, partial curve, poor fit] |
| COc1ccc(N2C(=O)CC(Sc3nc4ccccc4s3)C2=O)cc1 (stereo not given) |  | inconclusive: 6.51 µM [activator, partial curve, poor fit] |
| COc1ccc(C2C(C#N)=C(SC)NC3=C2C(=O)CC(C)(C)C3)cc1 (stereo not given) | inactive: 4.1% |  |
| Cc1cccc(-c2nc3c(s2)CCc2onc(-c4ccc(Br)cc4)c2-3)c1 |  | inconclusive: 16.4 µM [activator, single point] |
| COc1ccc(S(=O)(=O)N2CCC(C(=O)N3CCCCC3)CC2)cc1Cl |  | inconclusive: 29.1 µM [falling, single point] |

Some of these compounds in order of SMILES length, descending:

| Compound | activity change, negative = inhibition | Potency |
| --- | --- | --- |
| COc1ccc(S(=O)(=O)N2CCC(C(=O)N3CCCCC3)CC2)cc1Cl |  | inconclusive: 29.1 µM [falling, single point] |
| O=C(CSc1nncc2ccccc12)Nc1ccc(F)cc1 |  | inconclusive: 20.6 µM [falling, single point] |
| O=C(Nc1ccccc1Cl)c1ccc(Cl)cc1Cl |  | inconclusive: 23.1 µM [activator, partial curve] |

Following part:

| Compound | activity change, negative = inhibition | Potency |
| --- | --- | --- |
| COc1ccc(N2CCN(CCCNC(=O)c3ccc(CS(=O)(=O)c4ccc(OC)cc4)o3)CC2)cc1 |  | inconclusive: 23.1 µM [falling, partial curve] |
| CCCOC(=O)c1c(NC(=O)C(C)Sc2nc(-c3ccccc3)cc(C(F)(F)F)n2)sc(C(=O)N(C)C)c1C (stereo not given) |  | active: 20.6 µM |
| Cc1ccc(-c2nn(-c3ccccc3)cc2/C=C2\SC(=S)N(CCCCCC(=O)O)C2=O)o1 |  | inconclusive: 29.1 µM [falling, single point] |
| CCNC(=O)CCc1nc(-c2ccc(C(C)(C)C)cc2)no1 |  | inconclusive: 3.26 µM [falling, partial curve] |
| OCCN1CCN(Cc2nc(-c3cccc(Cl)c3)no2)CC1 |  | inconclusive: 14.6 µM [activator, partial curve, poor fit] |
| CCCc1ccc2oc(C(=O)N(C)Cc3nccs3)c(C)c2c1 |  | inconclusive: 1.84 µM [activator, partial curve, poor fit] |
| CCOC(=O)c1cnc(SCc2ccc(C(C)(C)C)cc2)nc1N |  | inconclusive: 5.8 µM [falling, full curve, poor fit] |
| COc1cc(NC(=O)CCC(=O)Nc2ccc3nc(N4CCOCC4)cc(C)c3c2)cc(OC)c1OC |  | inconclusive: 3.26 µM [activator, full curve, poor fit] |
| CN(c1ccccc1)S(=O)(=O)c1cccc(NC(=O)C2CC(=O)N(Cc3ccccc3)C2)c1 (stereo not given) |  | inconclusive: 13 µM [falling, partial curve, poor fit] |
| O=C(NCc1cccc(Br)c1)c1cnn(-c2ccc(F)cc2)c1-n1cccc1 | inactive: 7.49% |  |
| CC(=O)c1ccc(NC(=O)c2cc(-c3ccc(C)s3)nc3ccccc23)cc1 | inactive: 7.78% |  |
| Cc1ccc(S(=O)(=O)N2CCN(C(=O)COC(=O)CNC(=O)c3ccc(Cl)cc3Cl)CC2)c(C)c1 | inactive: 0.975% |  |
| Cc1cc(C(C)(C)C)cc(S(=O)(=O)NCCO)c1C |  | inconclusive: 6.51 µM [activator, single point] |
| Cc1cccc(Nc2nnc(SCC(=O)NC3CCCc4ccccc43)s2)c1C (stereo not given) |  | inconclusive: 16.4 µM [falling, single point] |
| Cc1cc(C)c(C)c(S(=O)(=O)N2CCN(C(=O)CCc3nc4ccccc4c(=O)[nH]3)CC2)c1C |  | inconclusive: 25.9 µM [falling, single point] |
| C/C(=N\NC(=O)c1cc(-c2cccc([N+](=O)[O-])c2)n[nH]1)c1ccccc1O |  | active: 9.2 µM |
| COC(=O)[C@@H]1Cc2c([nH]c3ccccc23)C(C)N1C(=O)c1ccccc1 (stereo not given in full) |  | inconclusive: 29.1 µM [falling, single point] |
| COC(=O)c1cc(=O)n(-c2ccccc2)c(=Nc2ccccc2)s1 |  | inconclusive: 16.4 µM [falling, partial curve] |
| CC1Cc2ccccc2N1C(=O)c1ccc(N2CCCC2)c([N+](=O)[O-])c1 (stereo not given) |  | active: 18.4 µM |
| N#Cc1cc2c(nc1SCc1ccccc1)CCC2 | inactive: 0.976% |  |
| O=C(CNc1cccc(S(=O)(=O)N2CCOCC2)c1)Nc1ccc(C(F)(F)F)cc1 |  | inconclusive: 18.4 µM [falling, single point] |
| O=C(c1ccc(N2CCCC2=O)cc1)N1CCN(c2ccc(Cl)cc2)CC1 |  | active: 18.4 µM |

| Compound | activity change, negative = inhibition | Potency |
| --- | --- | --- |
| COc1cc([N+](=O)[O-])c(OC)cc1SCc1n[nH]c(=S)n1-c1ccc(F)cc1 | inactive: 17.5% |  |
| CCOc1ccc(S(=O)(=O)c2c(C(=O)c3ccc(CC)cc3)cnc3ccc(C)cc23)cc1 | inactive: -5.15% |  |
| Cc1cc(C(=O)COC(=O)c2ccccc2NCCO)c(C)n1CC1CCCO1 (stereo not given) |  | inconclusive: 0.326 µM [activator, full curve, poor fit] |
| C=COCCCNc1ncnc2sc(-c3ccccc3)cc12 |  | active: 13 µM |
| O=C(N/N=C/c1cccc([N+](=O)[O-])c1)c1ccc(CN2CCOCC2)cc1 |  | inconclusive: 32.6 µM [activator, partial curve, poor fit] |
| CCCN(CCC)CCCNC(=O)c1cc2c(-c3ccc(OC)c(OC)c3)nn(C)c2s1 |  | inconclusive: 2.91 µM [activator, full curve] |
| Cc1sc2ncn(/N=C/c3cn(-c4ccccc4)nc3-c3ccccc3)c(=O)c2c1C | inactive: 1.45% |  |
| CCCn1nc(C(=O)N(C)CC(=O)Nc2ccc(OCC)c(OCC)c2)c2ccccc2c1=O | inactive: -4.49% |  |
| CCOc1ccc(NC(=O)c2cnc3ccccn3c2=O)cc1 |  | inconclusive: 6.51 µM [activator, partial curve] |
| CCCc1c(C)[nH]c2ccc(NC(C)=O)cc2c1=O | inactive: 6.1% |  |
| O=C(c1ccccc1)c1ccc(-n2ccnc2)c([N+](=O)[O-])c1 |  | inconclusive: 16.4 µM [falling, partial curve] |
| COc1cc(C2CC(=O)Nc3c2c(C)nn3-c2nncc(-c3ccc(C)cc3)n2)cc(OC)c1OC (stereo not given) |  | inconclusive: 2.91 µM [activator, full curve] |
| O=C(Nc1cccc(Cl)c1Cl)C1CC(=O)N(c2ccc(Br)cc2)C1 (stereo not given) |  | active: 7.31 µM |
| CCN(CC)CCCCNc1ncc2cc(-c3cc(OC)cc(OC)c3)c(NC(=O)NC(C)(C)C)nc2n1 |  | inconclusive: 23.1 µM [falling, single point] |
| COc1ccc(S(=O)(=O)c2c(O)c3ccc(C(=O)NCc4ccc(F)cc4)cc3[nH]c2=O)cc1 |  | inconclusive: 29.1 µM [activator, single point] |
| COc1ccc(NC(=O)CSc2nc(-c3ccc(F)cc3)[nH]c2-c2ccc(C)cc2)cc1OC |  | inconclusive: 16.4 µM [falling, single point] |
| Cc1ccc(CNC(=O)c2cc(C)nc3c2c(C)nn3-c2ccc(C)cc2)cc1 |  | inconclusive: 23.1 µM [activator, partial curve, poor fit] |
| O=C(Nc1cccc(S(=O)(=O)N2CCCCC2)c1)c1ccc2ncsc2c1 |  | inconclusive: 16.4 µM [falling, single point] |
| CCOC(=O)c1c(NC(=O)c2cc3ccccc3c(=O)o2)sc2c1CCC(C)C2 (stereo not given) |  | inconclusive: 0.651 µM [activator, full curve, poor fit] |
| O=C(CSc1nccc(-c2cccs2)n1)Nc1cccc(Cl)c1 |  | inconclusive: 18.4 µM [falling, single point] |
| COC(=O)c1ccc(NC(=O)c2ccc(CN3CCOCC3)cc2)cc1 |  | active: 9.2 µM |

Random excerpt: 2 compounds from above.

| Compound | activity change, negative = inhibition | Potency |
| --- | --- | --- |
| O=C(c1ccccc1)c1ccc(-n2ccnc2)c([N+](=O)[O-])c1 |  | inconclusive: 16.4 µM [falling, partial curve] |
| O=C(CSc1nccc(-c2cccs2)n1)Nc1cccc(Cl)c1 |  | inconclusive: 18.4 µM [falling, single point] |
